# Experimental data as given in the supplement of paper PMC8728848.
# Some of the results follow.
# B1: PX9961M-bvu-482-23-482 (Bacteroides vulgatus) (protein)
# chain: WLDLAPSTQVDTETSINVLSDIEFTLNGIYSTMQSSDAYSGRLVYYGDVTGDDMQAVSSTKRTGNYYRFNFTKDNGPSSHWSYLYSIIQNCNLILMNVDKLSIDEDETEYKNDLKGQALAIRGMALFDLTRIFGYPYLKDNGASLGVPIVKELSTIDSKPARNTVAECYTEIISDLKNSTELLSGDFNKGKVNRWAAMTLLSRVYLYKGEYNEALTMAENAIKGAEKEGYALWTNEEYPTAWGNDASASNPGEILFEIVNLTTDSPGKESMGYLNSYNGYDDMCITCSFYQLLKKDPKDVRLKILSFDKKYYAYVNKYQPQQGENITDANIPLIRLSEAYLNAAEAAVQTGDNAKAVKYLNSIVQRANPENSVEGKTLTLENVLDERRKELVAEGHRMYDVIRNGMTVKRIDVKDSDINKTKHNTAYMEYDWNFHKILLPIPKKEMDANPNMKQNPGYVD
# Assays:
# Assay in all cases: glycan array binding signal (z-score within array); higher = stronger binding
# Settings in all cases: glycan notation: IUPAC condensed, linker removed
# [1] = target: Gal(b1-4)GlcNAc(b1-2)[Gal(b1-4)GlcNAc(b1-6)]Man(a1-6)[GlcNAc(b1-4)][Gal(b1-4)GlcNAc(b1-2)Man(a1-3)]Man(b1-4)GlcNAc(b1-4)GlcNAc
# How it was run: (§1)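 Glycan array data came from 3228 arrays in the Consortium for Functional Glycomics database, and only arrays with an available protein sequence were kept. Glycan names were put into IUPAC-condensed notation, and columns mapping to the same glycan were averaged. The binding signal is a within-array Z-score, averaged across arrays of one protein sequence run at different concentrations or buffers and across linkers. A negative Z-score can be read as non-binding.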
# [2] = target: Gal(b1-4)GlcNAc(b1-2)[Gal(b1-4)GlcNAc(b1-6)]Man(a1-6)[GlcNAc(b1-4)][Gal(b1-4)GlcNAc(b1-2)[Gal(b1-4)GlcNAc(b1-4)]Man(a1-3)]Man(b1-4)GlcNAc(b1-4)[Fuc(a1-6)]GlcNAc
# How it was run: as §1
# [3] = target: Gal(b1-4)GlcNAc(b1-3)Gal(b1-3)GalNAc
# How it was run: as §1
# [4] = target: Gal(b1-4)GlcNAc(b1-3)Gal(b1-3)GlcNAc
# How it was run: as §1
# [5] = target: Gal(b1-4)GlcNAc(b1-3)Gal(b1-4)Glc
# How it was run: as §1
# [6] = target: Gal(b1-4)GlcNAc(b1-3)Gal(b1-4)GlcNAc
# How it was run: as §1
# [7] = target: Gal(b1-4)GlcNAc(b1-3)Gal(b1-4)GlcNAc(b1-2)Man(a1-3)[Gal(b1-4)GlcNAc(b1-3)Gal(b1-4)GlcNAc(b1-2)Man(a1-6)]Man(b1-4)GlcNAc(b1-4)GlcNAc
# How it was run: as §1
# [8] = target: Gal(b1-4)GlcNAc(b1-3)Gal(b1-4)GlcNAc(b1-2)Man(a1-3)[Gal(b1-4)GlcNAc(b1-3)Gal(b1-4)GlcNAc(b1-2)Man(a1-6)]Man(b1-4)GlcNAc(b1-4)[Fuc(a1-6)]GlcNAc
# How it was run: as §1
# [9] = target: Gal(b1-4)GlcNAc(b1-3)Gal(b1-4)GlcNAc(b1-2)[Gal(b1-4)GlcNAc(b1-3)Gal(b1-4)GlcNAc(b1-6)]Man(a1-6)[Gal(b1-4)GlcNAc(b1-3)Gal(b1-4)GlcNAc(b1-2)Man(a1-3)]Man(b1-4)GlcNAc(b1-4)GlcNAc
# How it was run: as §1
# [10] = target: Gal(b1-4)GlcNAc(b1-3)Gal(b1-4)GlcNAc(b1-2)[Gal(b1-4)GlcNAc(b1-3)Gal(b1-4)GlcNAc(b1-6)]Man(a1-6)[Gal(b1-4)GlcNAc(b1-3)Gal(b1-4)GlcNAc(b1-2)Man(a1-3)]Man(b1-4)GlcNAc(b1-4)[Fuc(a1-6)]GlcNAc
# How it was run: as §1
# [11] = target: Gal(b1-4)GlcNAc(b1-3)Gal(b1-4)GlcNAc(b1-3)Gal(b1-4)GlcNAc
# How it was run: as §1
# [12] = target: Gal(b1-4)GlcNAc(b1-3)Gal(b1-4)GlcNAc(b1-3)Gal(b1-4)GlcNAc(b1-2)Man(a1-3)[Gal(b1-4)GlcNAc(b1-3)Gal(b1-4)GlcNAc(b1-3)Gal(b1-4)GlcNAc(b1-2)Man(a1-6)]Man(b1-4)GlcNAc(b1-4)GlcNAc
# How it was run: as §1
# [13] = target: Gal(b1-4)GlcNAc(b1-3)Gal(b1-4)GlcNAc(b1-3)Gal(b1-4)GlcNAc(b1-2)Man(a1-3)[Gal(b1-4)GlcNAc(b1-3)Gal(b1-4)GlcNAc(b1-3)Gal(b1-4)GlcNAc(b1-2)Man(a1-6)]Man(b1-4)GlcNAc(b1-4)[Fuc(a1-6)]GlcNAc
# How it was run: as §1
# [14] = target: Gal(b1-4)GlcNAc(b1-3)Gal(b1-4)GlcNAc(b1-3)Gal(b1-4)GlcNAc(b1-2)[Gal(b1-4)GlcNAc(b1-3)Gal(b1-4)GlcNAc(b1-3)Gal(b1-4)GlcNAc(b1-6)]Man(a1-6)[Gal(b1-4)GlcNAc(b1-3)Gal(b1-4)GlcNAc(b1-3)Gal(b1-4)GlcNAc(b1-2)Man(a1-3)]Man(b1-4)GlcNAc(b1-4)[Fuc(a1-6)]GlcNAc
# How it was run: as §1
# [15] = target: Gal(b1-4)GlcNAc(b1-3)Gal(b1-4)GlcNAc(b1-3)Gal(b1-4)GlcNAc(b1-3)Gal(b1-4)GlcNAc(b1-2)Man(a1-3)[Gal(b1-4)GlcNAc(b1-3)Gal(b1-4)GlcNAc(b1-3)Gal(b1-4)GlcNAc(b1-3)Gal(b1-4)GlcNAc(b1-2)Man(a1-6)]Man(b1-4)GlcNAc(b1-4)GlcNAc
# How it was run: as §1
# [16] = target: Gal(b1-4)GlcNAc(b1-3)Gal(b1-4)GlcNAc(b1-3)Gal(b1-4)GlcNAc(b1-3)Gal(b1-4)GlcNAc(b1-2)Man(a1-3)[Gal(b1-4)GlcNAc(b1-3)Gal(b1-4)GlcNAc(b1-3)Gal(b1-4)GlcNAc(b1-3)Gal(b1-4)GlcNAc(b1-2)Man(a1-6)]Man(b1-4)GlcNAc(b1-4)[Fuc(a1-6)]GlcNAc
# How it was run: as §1
# [17] = target: Gal(b1-4)GlcNAc(b1-3)Gal(b1-4)GlcNAc(b1-3)Gal(b1-4)GlcNAc(b1-3)Gal(b1-4)GlcNAc(b1-2)[Gal(b1-4)GlcNAc(b1-3)Gal(b1-4)GlcNAc(b1-3)Gal(b1-4)GlcNAc(b1-3)Gal(b1-4)GlcNAc(b1-6)]Man(a1-6)[Gal(b1-4)GlcNAc(b1-3)Gal(b1-4)GlcNAc(b1-3)Gal(b1-4)GlcNAc(b1-3)Gal(b1-4)GlcNAc(b1-2)Man(a1-3)]Man(b1-4)GlcNAc(b1-4)[Fuc(a1-6)]GlcNAc
# How it was run: as §1
# [18] = target: Gal(b1-4)GlcNAc(b1-3)Gal(b1-4)GlcNAc(b1-3)Gal(b1-4)GlcNAc(b1-3)Gal(b1-4)GlcNAc(b1-3)Gal(b1-4)GlcNAc(b1-2)Man(a1-3)[Gal(b1-4)GlcNAc(b1-3)Gal(b1-4)GlcNAc(b1-3)Gal(b1-4)GlcNAc(b1-3)Gal(b1-4)GlcNAc(b1-3)Gal(b1-4)GlcNAc(b1-2)Man(a1-6)]Man(b1-4)GlcNAc(b1-4)GlcNAc
# How it was run: as §1
# [19] = target: Gal(b1-4)GlcNAc(b1-3)Gal(b1-4)GlcNAc(b1-3)Gal(b1-4)GlcNAc(b1-3)Gal(b1-4)GlcNAc(b1-3)Gal(b1-4)GlcNAc(b1-2)Man(a1-3)[Gal(b1-4)GlcNAc(b1-3)Gal(b1-4)GlcNAc(b1-3)Gal(b1-4)GlcNAc(b1-3)Gal(b1-4)GlcNAc(b1-3)Gal(b1-4)GlcNAc(b1-2)Man(a1-6)]Man(b1-4)GlcNAc(b1-4)[Fuc(a1-6)]GlcNAc
# How it was run: as §1
# [20] = target: Gal(b1-4)GlcNAc(b1-3)Gal(b1-4)GlcNAc(b1-3)Gal(b1-4)GlcNAc(b1-3)Gal(b1-4)GlcNAc(b1-3)Gal(b1-4)GlcNAc(b1-2)[Gal(b1-4)GlcNAc(b1-3)Gal(b1-4)GlcNAc(b1-3)Gal(b1-4)GlcNAc(b1-3)Gal(b1-4)GlcNAc(b1-3)Gal(b1-4)GlcNAc(b1-6)]Man(a1-6)[Gal(b1-4)GlcNAc(b1-3)Gal(b1-4)GlcNAc(b1-3)Gal(b1-4)GlcNAc(b1-3)Gal(b1-4)GlcNAc(b1-3)Gal(b1-4)GlcNAc(b1-2)Man(a1-3)]Man(b1-4)GlcNAc(b1-4)[Fuc(a1-6)]GlcNAc
# How it was run: as §1
# [21] = target: Gal(b1-4)GlcNAc(b1-3)Gal(b1-4)GlcNAc(b1-3)Gal(b1-4)GlcNAc(b1-3)Gal(b1-4)GlcNAc(b1-3)Gal(b1-4)GlcNAc(b1-3)Gal(b1-4)GlcNAc(b1-2)Man(a1-3)[Gal(b1-4)GlcNAc(b1-3)Gal(b1-4)GlcNAc(b1-3)Gal(b1-4)GlcNAc(b1-3)Gal(b1-4)GlcNAc(b1-3)Gal(b1-4)GlcNAc(b1-3)Gal(b1-4)GlcNAc(b1-2)Man(a1-6)]Man(b1-4)GlcNAc(b1-4)GlcNAc
# How it was run: as §1
# [22] = target: Gal(b1-4)GlcNAc(b1-3)Gal(b1-4)GlcNAc(b1-3)GalNAc
# How it was run: as §1
# [23] = target: Gal(b1-4)GlcNAc(b1-3)Gal(b1-4)GlcNAc(b1-3)[Gal(b1-4)GlcNAc(b1-3)Gal(b1-4)GlcNAc(b1-6)]GalNAc
# How it was run: as §1
# [24] = target: Gal(b1-4)GlcNAc(b1-3)Gal(b1-4)GlcNAc(b1-6)[Gal(b1-3)]GalNAc
# How it was run: as §1
# [25] = target: Gal(b1-4)GlcNAc(b1-3)Gal(b1-4)[Fuc(a1-3)]GlcNAc(b1-3)Gal(b1-4)[Fuc(a1-3)]GlcNAc
# How it was run: as §1
# [26] = target: Gal(b1-4)GlcNAc(b1-3)GalNAc
# How it was run: as §1
# [27] = target: Gal(b1-4)GlcNAc(b1-3)[Fuc(a1-3)GlcNAc(b1-6)]Gal(b1-4)Glc
# How it was run: as §1
# [28] = target: Gal(b1-4)GlcNAc(b1-3)[Gal(b1-4)GlcNAc(b1-6)]Gal(b1-4)GlcNAc
# How it was run: as §1
# [29] = target: Gal(b1-4)GlcNAc(b1-3)[GlcNAc(b1-6)]Gal(b1-4)GlcNAc
# How it was run: as §1
# [30] = target: Gal(b1-4)GlcNAc(b1-6)Gal(b1-4)GlcNAc
# How it was run: as §1
# [31] = target: Gal(b1-4)GlcNAc(b1-6)GalNAc
# How it was run: as §1
# [32] = target: Gal(b1-4)GlcNAc(b1-6)[Gal(b1-3)]GalNAc
# How it was run: as §1
# [33] = target: Gal(b1-4)GlcNAc(b1-6)[Gal(b1-4)GlcNAc(b1-3)]GalNAc
# How it was run: as §1
# Gal(b1-4)GlcNAc6P = target: Gal(b1-4)GlcNAc6P
# How it was run: as §1
# Gal(b1-6)Gal = target: Gal(b1-6)Gal
# How it was run: as §1
# Gal3S(b1-3)GalNAc = target: Gal3S(b1-3)GalNAc
# How it was run: as §1
# Gal3S(b1-3)GlcNAc = target: Gal3S(b1-3)GlcNAc
# How it was run: as §1
# [34] = target: Gal3S(b1-3)[Fuc(a1-4)]GlcNAc
# How it was run: as §1
binder,measurement,setting,value
B1,glycan array binding signal (z-score),[1],-0.402
same,glycan array binding signal (z-score),[2],-0.596
same,glycan array binding signal (z-score),[3],-1.18
same,glycan array binding signal (z-score),[4],-0.923
same,glycan array binding signal (z-score),[5],-0.05
same,glycan array binding signal (z-score),[6],0.139
same,glycan array binding signal (z-score),[7],0.706
same,glycan array binding signal (z-score),[8],0.79
same,glycan array binding signal (z-score),[9],0.199
same,glycan array binding signal (z-score),[10],0.458
same,glycan array binding signal (z-score),[11],-0.219
same,glycan array binding signal (z-score),[12],1.88
same,glycan array binding signal (z-score),[13],0.835
same,glycan array binding signal (z-score),[14],0.426
same,glycan array binding signal (z-score),[15],0.439
same,glycan array binding signal (z-score),[16],0.966
same,glycan array binding signal (z-score),[17],1.6
same,glycan array binding signal (z-score),[18],0.29
same,glycan array binding signal (z-score),[19],0.609
same,glycan array binding signal (z-score),[20],0.608
same,glycan array binding signal (z-score),[21],-0.069
same,glycan array binding signal (z-score),[22],0.796
same,glycan array binding signal (z-score),[23],0.51
same,glycan array binding signal (z-score),[24],0.544
same,glycan array binding signal (z-score),[25],-0.719
same,glycan array binding signal (z-score),[26],-0.553
same,glycan array binding signal (z-score),[27],0.544
same,glycan array binding signal (z-score),[28],-0.18
same,glycan array binding signal (z-score),[29],-0.692
same,glycan array binding signal (z-score),[30],-0.524
same,glycan array binding signal (z-score),[31],1.05
same,glycan array binding signal (z-score),[32],0.078
same,glycan array binding signal (z-score),[33],-0.462
same,glycan array binding signal (z-score),Gal(b1-4)GlcNAc6P,-0.498
same,glycan array binding signal (z-score),Gal(b1-6)Gal,-0.063
same,glycan array binding signal (z-score),Gal3S(b1-3)GalNAc,-0.129
same,glycan array binding signal (z-score),Gal3S(b1-3)GlcNAc,-0.1
same,glycan array binding signal (z-score),[34],-0.341
